According to the odorant receptor screen of Mainland et al. (2015):
Several values for one entry are separate records, joined by “and”; a condition that tells them apart may be missing. Identical values can stand only once. Some of the results follow. Single wells; the ratio to wells without odorant was worked out here, and repeats agree poorly.

How the values were obtained:
Assay in all cases: odorant receptor activation (CRE luciferase / Renilla) (fold of no-odor wells); higher = more activation
Conditions in all cases: 100 µM
OR10C1 clone 1065 = tested on: OR10C1 clone 1065
OR10G3 S73G clone 1272 = tested on: OR10G3 S73G clone 1272
OR10G6 clone 1108 = tested on: OR10G6 clone 1108
OR10G8 clone 1396 = tested on: OR10G8 clone 1396
[1] = tested on: OR10G9 A90T/M134V clone 1192
OR10H1 clone 1291 = tested on: OR10H1 clone 1291
OR10H2 L40Q clone 1461 = tested on: OR10H2 L40Q clone 1461
OR10H3 clone 1525 = tested on: OR10H3 clone 1525
OR10H5 A224D clone 1294 = tested on: OR10H5 A224D clone 1294
OR10J5 R233W clone 1410 = tested on: OR10J5 R233W clone 1410
OR10J5 clone 1037 = tested on: OR10J5 clone 1037
OR10K1 clone 1024 = tested on: OR10K1 clone 1024
OR10K2 clone 1040 = tested on: OR10K2 clone 1040
OR10P1 clone 1254 = tested on: OR10P1 clone 1254
OR10Q1 clone 1202 = tested on: OR10Q1 clone 1202
[2] = tested on: OR10R2 A191T/E216G/L239F clone 1304
[3] = tested on: OR10G4 A9V/M134V/V195E/R235G/K295Q clone 1119
OR10G7 clone 1589 = tested on: OR10G7 clone 1589
OR10J1 clone 1711 = tested on: OR10J1 clone 1711
OR10J3 clone 1458 = tested on: OR10J3 clone 1458

| Structure (SMILES) | odorant receptor activation (OR10C1 clone 1065) | odorant receptor activation (OR10G3 S73G clone 1272) | odorant receptor activation (OR10G6 clone 1108) | odorant receptor activation (OR10G8 clone 1396) | odorant receptor activation [1] | odorant receptor activation (OR10H1 clone 1291) | odorant receptor activation (OR10H2 L40Q clone 1461) | odorant receptor activation (OR10H3 clone 1525) | odorant receptor activation (OR10H5 A224D clone 1294) | odorant receptor activation (OR10J5 R233W clone 1410) | odorant receptor activation (OR10J5 clone 1037) | odorant receptor activation (OR10K1 clone 1024) | odorant receptor activation (OR10K2 clone 1040) | odorant receptor activation (OR10P1 clone 1254) | odorant receptor activation (OR10Q1 clone 1202) | odorant receptor activation [2] | odorant receptor activation [3] | odorant receptor activation (OR10G7 clone 1589) | odorant receptor activation (OR10J1 clone 1711) | odorant receptor activation (OR10J3 clone 1458) |
| --- | --- | --- | --- | --- | --- | --- | --- | --- | --- | --- | --- | --- | --- | --- | --- | --- | --- | --- | --- | --- |
| CCCCCC(C)=O [2-heptanone] | 0.786 | 1.86 | 0.828 | 0.897 | 1.23 | 1.45 | 1.37 and 0.874 | 0.935 and 0.528 | 1.02 | 0.802 | 0.407 | 0.829 | 0.957 | 2.02 | 1.14 | 1.04 |  |  |  |  |
| CC(=O)c1ccccc1 [acetophenone] | 0.709 | 3.99 | 1.04 | 0.78 | 1.08 | 2.18 | 1.25 and 0.885 | 1.08 and 0.674 | 1.02 | 0.857 | 0.982 | 0.997 | 1.86 | 0.706 | 0.959 | 2 |  |  |  |  |
| CC(C)(O)CCCC1=CCC(C=O)CC1 (stereo not given) [lyral] |  |  |  |  |  |  |  |  |  |  |  |  |  |  |  |  | 1.41 | 1.21 | 1.13 | 1.21 |
| CC12C=CCC1C1CCC3=CC(=O)CCC3(C)C1CC2 (stereo not given) [androstadienone] | 2.83 | 1.23 and 0.947 | 1.43 | 0.723 | 0.759 | 0.848 and 0.988 | 0.729 and 1.34 | 0.904 and 1.47 | 1.68 and 0.946 | 1.06 | 1.27 | 1.27 | 1.6 | 1.47 and 2.23 | 1.18 | 0.982 and 0.792 |  |  |  |  |
| COC(=O)c1ccccc1 [methyl benzoate] | 0.889 | 1.1 | 1.24 | 0.83 | 0.826 | 0.851 | 0.852 and 1.07 | 1.35 and 0.893 | 0.533 | 0.703 | 1.08 | 1.81 | 2.34 | 0.594 | 0.759 | 0.716 |  |  |  |  |
| CC12C=CCC1C1CCC3CC(=O)CCC3(C)C1CC2 (stereo not given) [androstenone] | 1.7 | 1.29 | 21 | 1.19 | 4.49 | 1.15 | 1.07 | 1.1 | 1.21 | 1.32 | 1.75 | 2.2 | 1.42 | 0.897 | 5.74 | 1.31 |  |  |  |  |
| CCCCCCCC=CC=O [2-decenal] | 6.15 | 1.64 | 42 | 1.02 | 1.12 | 0.893 | 1.34 | 1.9 | 0.637 | 2.06 | 15.8 | 10.1 | 6.01 | 0.766 | 1.05 | 1.27 | 1.01 | 1.49 | 0.879 | 1.18 |
| COc1cc(C=O)ccc1O [vanillin] | 0.805 | 6 | 0.915 | 0.924 | 1.45 | 1.01 | 1.04 | 1 | 0.85 | 0.988 | 0.974 | 0.894 | 0.995 | 0.877 | 0.87 | 0.966 | 2.08 | 1.35 | 0.964 | 1.32 |
| CCCCCCCCC=O [nonyl aldehyde] | 0.822 | 1.1 | 1.06 | 0.886 | 1.12 | 0.988 | 1.06 | 1.03 | 1.09 | 0.974 | 0.936 | 1.27 | 0.844 | 0.992 | 0.988 | 1.14 | 1.23 | 13.2 | 0.836 | 1.19 |
| CC(=O)C(C)=O [diacetyl] | 1.28 | 1.39 | 0.975 | 1.2 | 0.875 | 0.943 | 1.33 | 1.61 | 1.15 | 0.983 | 0.973 | 1.46 | 1.07 | 1.14 | 1.17 | 1.3 | 1.23 | 0.336 | 0.597 | 0.984 |
| C=C(C)C1CCC2=CC(=O)CC(C)C2(C)C1 (stereo not given) [amyl laurate] |  |  |  |  |  |  |  |  |  |  |  |  |  |  |  |  | 2.35 | 1.36 | 1.33 | 1.73 |
| O=C1CCCCC1 [Cyclohexanone] | 0.162 | 0.728 | 2.45 | 0.948 | 0.811 | 0.587 | 0.785 and 1.09 | 1.36 and 0.792 | 0.693 | 0.779 | 0.789 | 0.895 | 1.33 | 0.518 | 0.969 | 0.792 |  |  |  |  |
| CCCCCCC=O [heptaldehyde] | 0.846 and 1.86 | 0.734 and 0.871 and 0.85 | 1.15 and 1.13 | 0.974 and 0.725 | 0.305 and 0.681 | 0.652 and 1.02 and 0.92 |  |  | 0.524 and 0.932 and 0.746 | 0.912 and 0.871 | 1.37 and 1.68 | 0.85 and 1.23 | 2.12 and 1.04 |  | 0.391 and 0.998 | 0.524 and 0.848 and 0.827 | 2.29 | 2.28 | 0.853 | 0.759 |
| COc1cc(C)ccc1O [2-methoxy-4-methylphenol] | 2.31 | 2.08 | 18.9 | 1.19 | 1.47 | 1.22 | 0.96 | 0.821 | 0.91 | 1.29 | 1.75 | 3.43 | 1.54 | 1.14 | 1.18 | 0.969 | 3.71 | 10.7 | 0.711 | 0.921 |
| CCCCCCCOC(C)=O [heptyl acetate] | 1.84 | 0.877 and 1.33 | 1.03 | 0.931 | 0.58 | 0.963 and 0.744 | 0.69 and 1.27 | 0.635 and 1.24 | 0.947 and 0.966 | 0.977 | 1.02 | 0.873 | 0.923 | 1.04 and 2.42 | 1.16 | 1.03 and 0.547 | 1.29 | 1.23 | 0.569 | 0.804 |
| C=CCc1ccc(O)c(OC)c1 [eugenol] | 0.653 and 1.59 |  | 2.61 and 1.41 | 1.3 and 1.27 | 1.36 and 1.1 | 1.67 and 1.26 | 1.36 and 1.33 and 1.38 | 2.19 and 0.811 and 1.31 | 2.44 and 1.66 | 1.31 and 1.23 | 2.2 and 1.23 | 1.32 and 1.52 | 2.93 and 1.47 | 2.04 and 1.42 | 1.18 and 1.17 | 1.2 | 1.16 | 1.39 | 1.25 | 1.28 |
